Experimental data: PubChem BioAssay AID602196 (INSERM, 2012)
The deposit covers about 23,000 reagents; shown is an unselected part. In the full data, 455 (2%) were called active. 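Active includes both protection and sensitisation; some change values fall well beyond the stated -50 to +50 range.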 Further read-outs or replicates are left out here. Not given: the amount of reagent.

- Assay: 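Modifiers of cisplatin sensitivity in A549 cells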
- Cell system: human A549 lung cancer cells
- Reagent: siRNA pair against human genes
- Duration: 48 h transfection before cisplatin; time from cisplatin to read-out not stated
- Conditions: cisplatin at a dose killing half of control-siRNA cells; exact dose and duration not given
- Detection: 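Cisplatin cell death as a shift from the 50% death seen with control siRNA; siRNAs toxic or growth-blocking alone scored 0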
- Reading the numbers: two-siRNA summed score (-2 to +2): higher = both siRNAs protect from cisplatin killing; -2 means both sensitise
- Call rule: 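siRNAs harmful alone (LDH or WST-1) get 0; others get +1 for less and -1 for more cisplatin killing; genes are active when the two siRNAs give the same sign, summing to ±2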
- Meaning of the calls: active = both siRNAs shift cisplatin killing the same way; inactive = no consistent shift, or siRNA harmful alone

target gene | two-siRNA summed score (-2 to +2) | Outcome
FOLR3 | 0 | inactive
LOC442434 | 0 | inactive
LOC389637 | 0 | inactive
IL36G | 0 | inactive
C9orf85 | 1 | inactive
CCS | 0 | inactive
LNX1 | 0 | inactive
BCAR1 | -1 | inactive
UBE2C | -2 | active
NDUFAF6 | 1 | inactive
RBP2 | 0 | inactive
GTF2E1 | 1 | inactive
SMPX | 0 | inactive
FAIM2 | 0 | inactive
LOC441840 | 0 | inactive
RPL13 | 0 | inactive
RABL3 | 1 | inactive
S100A1 | 0 | inactive
LOC155060 | 0 | inactive
ZYG11A | 1 | inactive
SYN3 | 0 | inactive
RBM18 | 0 | inactive
HCST | 0 | inactive
OR2L8 | 1 | inactive
LOC343578 | 0 | inactive
PRR23C | 0 | inactive
NCDN | 0 | inactive
SELENOO | 0 | inactive

Sorted by “two-siRNA summed score (-2 to +2)” (ascending): some entries from above
target gene | two-siRNA summed score (-2 to +2) | Outcome
SMPX | 0 | inactive
FAIM2 | 0 | inactive
LOC441840 | 0 | inactive
RPL13 | 0 | inactive
RABL3 | 1 | inactive

Additional records:
target gene | two-siRNA summed score (-2 to +2) | Outcome
TNFSF9 | 0 | inactive
CSGALNACT2 | 0 | inactive
AKIP1 | 0 | inactive
OBP2A | 0 | inactive
LINC00477 | 0 | inactive
LOC391303 | 0 | inactive
CD3E | 0 | inactive
CCT8L2 | 0 | inactive
LOC441121 | 1 | inactive
PIP5K1C | 0 | inactive
LOC441506 | 0 | inactive
FAR1 | 0 | inactive
FAM171B | 0 | inactive
OR5AP2 | -1 | inactive
LOC440845 | 1 | inactive
TEX264 | 0 | inactive
CD209 | 0 | inactive
ARHGAP28 | 1 | inactive
LNPK | 1 | inactive
LOC388952 | 0 | inactive
HYDIN | 0 | inactive
ZSWIM8 | 0 | inactive
CALM3 | -1 | inactive
CIRBP-AS1 | 0 | inactive
LOC388809 | 1 | inactive
LOC401079 | 0 | inactive
ATP5MK | 0 | inactive
PPT1 | 1 | inactive
CD37 | 1 | inactive
